The values below come from article doi:10.1101/2024.02.25.581915.

Amino acid sequences for entries named in this document (tags omitted).
UniProt Q6P9B9, whole entry: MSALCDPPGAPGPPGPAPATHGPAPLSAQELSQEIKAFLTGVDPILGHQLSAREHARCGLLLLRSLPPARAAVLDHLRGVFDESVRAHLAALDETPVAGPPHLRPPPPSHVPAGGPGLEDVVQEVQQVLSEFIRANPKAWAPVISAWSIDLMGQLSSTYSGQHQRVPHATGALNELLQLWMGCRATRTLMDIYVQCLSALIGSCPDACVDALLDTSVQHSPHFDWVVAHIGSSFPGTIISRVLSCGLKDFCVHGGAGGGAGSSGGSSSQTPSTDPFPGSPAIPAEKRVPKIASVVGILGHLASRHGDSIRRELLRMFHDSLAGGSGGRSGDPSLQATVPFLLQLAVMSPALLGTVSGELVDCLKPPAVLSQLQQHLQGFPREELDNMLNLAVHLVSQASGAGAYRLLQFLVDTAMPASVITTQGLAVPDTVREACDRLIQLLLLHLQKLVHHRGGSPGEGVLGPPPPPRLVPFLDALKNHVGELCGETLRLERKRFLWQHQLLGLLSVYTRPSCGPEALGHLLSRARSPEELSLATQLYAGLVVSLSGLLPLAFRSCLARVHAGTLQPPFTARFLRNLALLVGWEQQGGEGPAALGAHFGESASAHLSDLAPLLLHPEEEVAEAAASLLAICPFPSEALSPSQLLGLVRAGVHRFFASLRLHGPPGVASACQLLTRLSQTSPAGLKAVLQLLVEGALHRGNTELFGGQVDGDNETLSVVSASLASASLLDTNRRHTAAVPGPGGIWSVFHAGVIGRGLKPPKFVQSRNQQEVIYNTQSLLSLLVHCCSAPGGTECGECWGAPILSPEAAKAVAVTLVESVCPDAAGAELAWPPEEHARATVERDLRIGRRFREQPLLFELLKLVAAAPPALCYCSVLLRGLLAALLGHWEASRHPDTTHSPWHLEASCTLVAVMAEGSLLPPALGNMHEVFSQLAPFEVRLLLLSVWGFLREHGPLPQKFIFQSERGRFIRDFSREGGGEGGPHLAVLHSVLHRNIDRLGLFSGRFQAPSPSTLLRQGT
UniProt Q68E01, whole entry: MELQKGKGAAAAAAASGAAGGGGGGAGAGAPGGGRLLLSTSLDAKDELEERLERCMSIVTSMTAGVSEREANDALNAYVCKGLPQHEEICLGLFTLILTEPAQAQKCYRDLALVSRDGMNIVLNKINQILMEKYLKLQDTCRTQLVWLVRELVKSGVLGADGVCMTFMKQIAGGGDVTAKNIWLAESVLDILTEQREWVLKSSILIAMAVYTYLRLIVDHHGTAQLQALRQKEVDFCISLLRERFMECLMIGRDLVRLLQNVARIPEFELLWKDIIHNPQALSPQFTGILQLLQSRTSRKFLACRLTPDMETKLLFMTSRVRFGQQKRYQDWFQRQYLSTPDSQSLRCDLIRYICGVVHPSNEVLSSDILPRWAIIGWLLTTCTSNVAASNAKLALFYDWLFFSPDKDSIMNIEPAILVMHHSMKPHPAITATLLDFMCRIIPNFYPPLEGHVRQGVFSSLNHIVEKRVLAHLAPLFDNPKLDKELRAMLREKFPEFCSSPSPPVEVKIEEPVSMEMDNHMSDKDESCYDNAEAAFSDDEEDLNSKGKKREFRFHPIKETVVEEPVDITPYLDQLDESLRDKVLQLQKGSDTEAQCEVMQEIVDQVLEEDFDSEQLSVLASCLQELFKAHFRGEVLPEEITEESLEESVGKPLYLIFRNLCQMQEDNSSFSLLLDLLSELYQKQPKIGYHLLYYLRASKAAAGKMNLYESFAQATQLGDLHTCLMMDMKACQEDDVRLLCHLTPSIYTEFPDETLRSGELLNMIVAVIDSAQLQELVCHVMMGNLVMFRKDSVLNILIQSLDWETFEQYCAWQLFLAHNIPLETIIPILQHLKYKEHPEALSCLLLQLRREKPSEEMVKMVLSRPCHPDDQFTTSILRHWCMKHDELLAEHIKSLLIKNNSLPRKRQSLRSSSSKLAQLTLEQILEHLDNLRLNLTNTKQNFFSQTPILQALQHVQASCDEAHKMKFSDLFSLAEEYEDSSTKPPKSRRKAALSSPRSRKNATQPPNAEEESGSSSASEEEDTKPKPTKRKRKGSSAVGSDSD
UniProt P60896, whole entry: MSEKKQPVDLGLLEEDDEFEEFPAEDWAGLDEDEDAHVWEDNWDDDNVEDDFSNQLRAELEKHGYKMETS
UniProt P55036, whole entry: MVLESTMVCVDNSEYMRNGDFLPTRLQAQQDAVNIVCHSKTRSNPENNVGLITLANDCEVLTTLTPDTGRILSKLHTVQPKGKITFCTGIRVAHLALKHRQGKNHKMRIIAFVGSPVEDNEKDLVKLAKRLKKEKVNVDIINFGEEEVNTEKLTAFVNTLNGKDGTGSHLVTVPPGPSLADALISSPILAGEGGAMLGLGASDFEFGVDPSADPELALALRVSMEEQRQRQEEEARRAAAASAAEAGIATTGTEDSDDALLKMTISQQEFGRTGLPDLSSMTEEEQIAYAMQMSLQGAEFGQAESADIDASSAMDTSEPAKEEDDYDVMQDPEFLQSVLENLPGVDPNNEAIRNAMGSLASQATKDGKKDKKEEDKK
UniProt O00487, whole entry: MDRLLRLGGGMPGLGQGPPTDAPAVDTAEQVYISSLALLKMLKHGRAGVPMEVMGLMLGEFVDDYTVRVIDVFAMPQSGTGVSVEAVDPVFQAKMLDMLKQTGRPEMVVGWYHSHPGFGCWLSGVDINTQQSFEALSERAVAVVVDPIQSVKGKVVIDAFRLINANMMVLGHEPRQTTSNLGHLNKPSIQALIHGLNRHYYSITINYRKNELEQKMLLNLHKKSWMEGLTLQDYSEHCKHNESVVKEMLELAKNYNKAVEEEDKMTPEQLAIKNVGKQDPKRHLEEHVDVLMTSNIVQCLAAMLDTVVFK

Holding throughout (experiment): co-IP
Experiment [1] deals with INTS5 (endogenous) (human (endogenous in DLD-1)) (UniProt Q6P9B9).
Experiment [2] has as its target INTS3 (endogenous) (human (endogenous in DLD-1)) (UniProt Q68E01).
Experiment [3] has as its target HA–GFP-tagged wild-type DSS1 (pLVX-DSS1-WT) (human) (UniProt P60896).

These are yes or no findings as the source states them, for the method shown. Binding seen in cells or lysates may run through a third protein. Some entries that bind do so weakly or less than the wild type.

In the case of “DSS1–Flag–dTAG (endogenous DSS1 locus tagged in DLD-1 cells) (from UniProt P60896 1-70)”, the binding result in experiment [1] and in experiment [2] was “binds” in each case.
For the substance “PSMD4 (26S proteasome subunit, endogenous) (from UniProt P55036 1-377)”, in experiment [3], the binding entry is listed as “binds”.
On the same count and under the same terms, for “PSMD14 (26S proteasome subunit, endogenous) (from UniProt O00487 1-310)” the value was “binds”.
